{"sequences": {"note": "Amino acid sequences for entries named in this document (tags omitted). A change or cut given only in a name is not applied to a line headed by its entry.", "UniProt P06526": "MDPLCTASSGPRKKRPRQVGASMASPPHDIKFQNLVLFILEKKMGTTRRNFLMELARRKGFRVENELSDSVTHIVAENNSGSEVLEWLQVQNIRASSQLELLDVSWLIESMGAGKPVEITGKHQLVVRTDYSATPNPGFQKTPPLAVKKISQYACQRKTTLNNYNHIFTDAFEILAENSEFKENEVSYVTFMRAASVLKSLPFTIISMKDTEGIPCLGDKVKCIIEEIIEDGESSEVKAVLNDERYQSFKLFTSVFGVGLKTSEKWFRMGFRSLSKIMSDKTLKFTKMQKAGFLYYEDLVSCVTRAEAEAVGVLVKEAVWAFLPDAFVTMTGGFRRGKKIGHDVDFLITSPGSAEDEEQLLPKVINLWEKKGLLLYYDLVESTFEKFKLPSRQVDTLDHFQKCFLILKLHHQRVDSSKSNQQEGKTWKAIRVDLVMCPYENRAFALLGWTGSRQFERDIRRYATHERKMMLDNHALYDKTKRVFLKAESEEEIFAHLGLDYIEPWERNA"}, "source": "the supplement of paper PMC8291772", "note": "± gives the standard error. The list shows a part of the results. Single values are uncertain here, since repeats match poorly.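 The library held every possible DNA sequence from one to five nucleotides long. General ability to extend was judged against a limit of the blocked-version mean plus three standard deviations, and the probe detects only chains extended by at least seven dT.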"}
{"biological_target": "terminal deoxynucleotidyl transferase (calf thymus) (UniProt P06526)", "assay": "TdT poly-dT extension signal (Cy3 hybridisation fluorescence, uncapped minus capped) (fluorescence a.u.); higher = more efficient initiation of TdT extension", "settings": "initiator chemistry: D-DNA, free 3'-OH (5'-tethered via HEG linker)", "experimental": "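All mono- to pentamer initiator sequences were made by photolithographic in situ synthesis (reverse 5'->3' direction) on glass on a single hexaethylene glycol linker. Each was made in uncapped and DMTr-dT-capped versions, about 11 replicate features each. Arrays were extended with calf thymus TdT (0.2 U/uL) and 100 uM dTTP in TdT buffer with 0.25 mM CoCl2 for 120 min at 37 C, then hybridised with an rA18-Cy3 probe at 4 C and scanned at 532 nm. The value is the mean uncapped signal minus the mean capped signal of the same sequence.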"}
{"sequence": "TTTCG", "TdT poly-dT extension signal": "4240 ± 670"}
{"sequence": "CCACG", "TdT poly-dT extension signal": "3530 ± 650"}
{"sequence": "CGTC", "TdT poly-dT extension signal": "3080 ± 270"}
{"sequence": "CATGG", "TdT poly-dT extension signal": "3150 ± 450"}
{"sequence": "CCTTA", "TdT poly-dT extension signal": "3840 ± 340"}
{"sequence": "TAAAC", "TdT poly-dT extension signal": "3970 ± 180"}
{"sequence": "CTTTG", "TdT poly-dT extension signal": "4120 ± 330"}
{"sequence": "TAAGA", "TdT poly-dT extension signal": "4680 ± 560"}
{"sequence": "GGTAC", "TdT poly-dT extension signal": "3680 ± 600"}
{"sequence": "AAAAC", "TdT poly-dT extension signal": "2970 ± 300"}
{"sequence": "TTTT", "TdT poly-dT extension signal": "3570 ± 480"}
{"sequence": "CTTTT", "TdT poly-dT extension signal": "3960 ± 400"}
{"sequence": "GATTT", "TdT poly-dT extension signal": "4070 ± 410"}
{"sequence": "CCCTG", "TdT poly-dT extension signal": "4100 ± 360"}
{"sequence": "CTCTG", "TdT poly-dT extension signal": "4170 ± 610"}
{"sequence": "ACGAT", "TdT poly-dT extension signal": "4110 ± 230"}
{"sequence": "TATCC", "TdT poly-dT extension signal": "2390 ± 320"}
{"sequence": "GTGCA", "TdT poly-dT extension signal": "4270 ± 530"}
{"sequence": "TCTCA", "TdT poly-dT extension signal": "4070 ± 530"}
{"sequence": "TACGG", "TdT poly-dT extension signal": "3960 ± 350"}
{"sequence": "CACAG", "TdT poly-dT extension signal": "3750 ± 310"}
{"sequence": "GACTC", "TdT poly-dT extension signal": "3100 ± 220"}
{"sequence": "ACGT", "TdT poly-dT extension signal": "3930 ± 290"}
{"sequence": "AGACG", "TdT poly-dT extension signal": "4090 ± 280"}
{"sequence": "AGCTA", "TdT poly-dT extension signal": "3600 ± 380"}
{"sequence": "CCCTT", "TdT poly-dT extension signal": "3850 ± 490"}
{"sequence": "TATCG", "TdT poly-dT extension signal": "3990 ± 300"}
{"sequence": "GCCG", "TdT poly-dT extension signal": "3940 ± 640"}
{"sequence": "AGTG", "TdT poly-dT extension signal": "3130 ± 610"}
{"sequence": "AAGAT", "TdT poly-dT extension signal": "4510 ± 600"}
{"sequence": "CAGAC", "TdT poly-dT extension signal": "3040 ± 310"}
{"sequence": "TAAAG", "TdT poly-dT extension signal": "3830 ± 500"}
{"sequence": "AAAGC", "TdT poly-dT extension signal": "3520 ± 330"}
{"sequence": "GTGCG", "TdT poly-dT extension signal": "2990 ± 310"}
{"sequence": "GAAA", "TdT poly-dT extension signal": "2920 ± 460"}
{"sequence": "GTGA", "TdT poly-dT extension signal": "2720 ± 400"}
{"sequence": "TCAAC", "TdT poly-dT extension signal": "3870 ± 290"}
{"sequence": "ACACG", "TdT poly-dT extension signal": "4000 ± 260"}
{"sequence": "GAGC", "TdT poly-dT extension signal": "3820 ± 210"}
{"sequence": "ATCT", "TdT poly-dT extension signal": "4050 ± 240"}
{"sequence": "TCCT", "TdT poly-dT extension signal": "4050 ± 220"}
{"sequence": "AGCCA", "TdT poly-dT extension signal": "4280 ± 280"}
{"sequence": "GTACT", "TdT poly-dT extension signal": "3590 ± 230"}
{"sequence": "TGATG", "TdT poly-dT extension signal": "4140 ± 360"}
{"sequence": "CGGC", "TdT poly-dT extension signal": "3830 ± 360"}
{"sequence": "CTGTC", "TdT poly-dT extension signal": "3570 ± 290"}
{"sequence": "GGTCT", "TdT poly-dT extension signal": "3920 ± 370"}
{"sequence": "CATTA", "TdT poly-dT extension signal": "3800 ± 400"}
{"sequence": "GGCAT", "TdT poly-dT extension signal": "4520 ± 390"}
{"sequence": "GCTA", "TdT poly-dT extension signal": "2990 ± 330"}
{"sequence": "GGATA", "TdT poly-dT extension signal": "3980 ± 450"}
{"sequence": "CTTGT", "TdT poly-dT extension signal": "3690 ± 430"}
{"sequence": "CTTCA", "TdT poly-dT extension signal": "4120 ± 450"}
{"sequence": "TTGTG", "TdT poly-dT extension signal": "3600 ± 420"}
{"sequence": "ATGCT", "TdT poly-dT extension signal": "3420 ± 380"}
{"sequence": "ATTAG", "TdT poly-dT extension signal": "2660 ± 440"}
{"sequence": "GCTGC", "TdT poly-dT extension signal": "3540 ± 430"}
{"sequence": "CCACA", "TdT poly-dT extension signal": "4530 ± 370"}
{"sequence": "GTAGG", "TdT poly-dT extension signal": "4060 ± 300"}
{"sequence": "CTATA", "TdT poly-dT extension signal": "3770 ± 530"}
{"sequence": "GTCAT", "TdT poly-dT extension signal": "3520 ± 380"}
{"sequence": "CCGCT", "TdT poly-dT extension signal": "3380 ± 580"}
{"sequence": "CCAAT", "TdT poly-dT extension signal": "3720 ± 540"}
{"sequence": "GATTA", "TdT poly-dT extension signal": "4310 ± 650"}
{"sequence": "CACCC", "TdT poly-dT extension signal": "3430 ± 130"}
{"sequence": "TGGTT", "TdT poly-dT extension signal": "4010 ± 380"}
{"sequence": "TCCTG", "TdT poly-dT extension signal": "3000 ± 360"}
{"sequence": "GAAG", "TdT poly-dT extension signal": "3890 ± 440"}
{"sequence": "CCAAC", "TdT poly-dT extension signal": "3590 ± 180"}
{"sequence": "TCTTT", "TdT poly-dT extension signal": "3360 ± 460"}
{"sequence": "TAAC", "TdT poly-dT extension signal": "2550 ± 320"}
{"sequence": "TGGAT", "TdT poly-dT extension signal": "4470 ± 370"}
{"sequence": "TCTCG", "TdT poly-dT extension signal": "3360 ± 390"}
{"sequence": "GGAGG", "TdT poly-dT extension signal": "4510 ± 390"}
{"sequence": "ATGGT", "TdT poly-dT extension signal": "3880 ± 490"}
{"sequence": "CAGG", "TdT poly-dT extension signal": "3030 ± 530"}
{"sequence": "ATTGA", "TdT poly-dT extension signal": "3540 ± 420"}
{"sequence": "GGTGC", "TdT poly-dT extension signal": "3630 ± 300"}
{"sequence": "CCTTC", "TdT poly-dT extension signal": "2820 ± 320"}
{"sequence": "CGCTA", "TdT poly-dT extension signal": "3950 ± 190"}
{"sequence": "CGGCC", "TdT poly-dT extension signal": "3460 ± 230"}
{"sequence": "ACACC", "TdT poly-dT extension signal": "2860 ± 240"}
{"sequence": "GTGT", "TdT poly-dT extension signal": "3870 ± 260"}
{"sequence": "ACCAC", "TdT poly-dT extension signal": "3510 ± 300"}
{"sequence": "AATCG", "TdT poly-dT extension signal": "3390 ± 390"}
{"sequence": "GTGAG", "TdT poly-dT extension signal": "4230 ± 490"}
{"sequence": "GTTCA", "TdT poly-dT extension signal": "3030 ± 490"}
{"sequence": "TCGCG", "TdT poly-dT extension signal": "3870 ± 380"}
{"sequence": "CCAGC", "TdT poly-dT extension signal": "3390 ± 370"}
{"sequence": "GAAAT", "TdT poly-dT extension signal": "3600 ± 410"}
{"sequence": "TCAGG", "TdT poly-dT extension signal": "4350 ± 360"}
{"sequence": "GCTTC", "TdT poly-dT extension signal": "3040 ± 330"}
{"sequence": "GTGTA", "TdT poly-dT extension signal": "4350 ± 630"}
{"sequence": "AAGTC", "TdT poly-dT extension signal": "3540 ± 250"}
{"sequence": "CATGA", "TdT poly-dT extension signal": "4460 ± 560"}
{"sequence": "AACGG", "TdT poly-dT extension signal": "4190 ± 240"}
{"sequence": "CATTC", "TdT poly-dT extension signal": "3120 ± 260"}
{"sequence": "TAACC", "TdT poly-dT extension signal": "2360 ± 280"}
{"sequence": "GGCGC", "TdT poly-dT extension signal": "3380 ± 440"}
{"sequence": "AGCCC", "TdT poly-dT extension signal": "2510 ± 400"}
{"sequence": "CTAAT", "TdT poly-dT extension signal": "3650 ± 370"}
{"sequence": "GGGAC", "TdT poly-dT extension signal": "3520 ± 440"}
{"sequence": "GTCAA", "TdT poly-dT extension signal": "3830 ± 480"}
{"sequence": "CGTA", "TdT poly-dT extension signal": "2780 ± 380"}
{"sequence": "CGCAA", "TdT poly-dT extension signal": "4650 ± 480"}
{"sequence": "TCCTA", "TdT poly-dT extension signal": "2760 ± 330"}
{"sequence": "AACAA", "TdT poly-dT extension signal": "3590 ± 390"}
{"sequence": "TTCCA", "TdT poly-dT extension signal": "3120 ± 380"}
{"sequence": "GAATA", "TdT poly-dT extension signal": "4670 ± 610"}
{"sequence": "AAAT", "TdT poly-dT extension signal": "3430 ± 400"}
{"sequence": "TGTGG", "TdT poly-dT extension signal": "4160 ± 600"}
{"sequence": "CCAC", "TdT poly-dT extension signal": "3540 ± 410"}
{"sequence": "TCAG", "TdT poly-dT extension signal": "3220 ± 470"}
{"sequence": "CATAG", "TdT poly-dT extension signal": "3670 ± 370"}
{"sequence": "GTGGG", "TdT poly-dT extension signal": "4940 ± 490"}
{"sequence": "CGCCG", "TdT poly-dT extension signal": "3480 ± 400"}
{"sequence": "CTCCG", "TdT poly-dT extension signal": "3460 ± 420"}
{"sequence": "CGGTA", "TdT poly-dT extension signal": "3400 ± 430"}
{"sequence": "CTGCG", "TdT poly-dT extension signal": "4010 ± 190"}
{"sequence": "ACAGC", "TdT poly-dT extension signal": "3240 ± 320"}
{"sequence": "GTTCG", "TdT poly-dT extension signal": "3860 ± 520"}
{"sequence": "GCCCT", "TdT poly-dT extension signal": "3870 ± 270"}
{"sequence": "ATTGC", "TdT poly-dT extension signal": "3490 ± 190"}
{"sequence": "TACAG", "TdT poly-dT extension signal": "3770 ± 320"}
{"sequence": "ATGAG", "TdT poly-dT extension signal": "3860 ± 530"}
{"sequence": "CTCCA", "TdT poly-dT extension signal": "3250 ± 380"}
{"sequence": "TGACG", "TdT poly-dT extension signal": "4130 ± 510"}
{"sequence": "AAGTA", "TdT poly-dT extension signal": "3340 ± 370"}
{"sequence": "AAGGC", "TdT poly-dT extension signal": "3250 ± 560"}
{"sequence": "TCCCA", "TdT poly-dT extension signal": "3700 ± 310"}
{"sequence": "CACTG", "TdT poly-dT extension signal": "3930 ± 570"}
{"sequence": "TGTGC", "TdT poly-dT extension signal": "3540 ± 260"}
{"sequence": "ATGCC", "TdT poly-dT extension signal": "2100 ± 310"}
{"sequence": "AGTAC", "TdT poly-dT extension signal": "3990 ± 660"}
{"sequence": "CCGGT", "TdT poly-dT extension signal": "3820 ± 420"}
{"sequence": "GAGTG", "TdT poly-dT extension signal": "3460 ± 400"}
{"sequence": "ATTGT", "TdT poly-dT extension signal": "4320 ± 440"}
